Assay results: article PMC11317515
Where two headings read alike, the source gives them in different places. No constants are given. Whether binding was seen depends on the method and setting. For some of these results: Binding seen in cells or lysates may run through a third protein. Some binding calls cover weakened binding; strength is not graded here. Where a sequence is shown, tags or fusion partners need not be part of it.

The chains behind the UniProt entries cited, without tags or fusion partners. Where a name states a change or a piece, a line headed by the entry shows the natural chain unless it says otherwise.
UniProt P02566: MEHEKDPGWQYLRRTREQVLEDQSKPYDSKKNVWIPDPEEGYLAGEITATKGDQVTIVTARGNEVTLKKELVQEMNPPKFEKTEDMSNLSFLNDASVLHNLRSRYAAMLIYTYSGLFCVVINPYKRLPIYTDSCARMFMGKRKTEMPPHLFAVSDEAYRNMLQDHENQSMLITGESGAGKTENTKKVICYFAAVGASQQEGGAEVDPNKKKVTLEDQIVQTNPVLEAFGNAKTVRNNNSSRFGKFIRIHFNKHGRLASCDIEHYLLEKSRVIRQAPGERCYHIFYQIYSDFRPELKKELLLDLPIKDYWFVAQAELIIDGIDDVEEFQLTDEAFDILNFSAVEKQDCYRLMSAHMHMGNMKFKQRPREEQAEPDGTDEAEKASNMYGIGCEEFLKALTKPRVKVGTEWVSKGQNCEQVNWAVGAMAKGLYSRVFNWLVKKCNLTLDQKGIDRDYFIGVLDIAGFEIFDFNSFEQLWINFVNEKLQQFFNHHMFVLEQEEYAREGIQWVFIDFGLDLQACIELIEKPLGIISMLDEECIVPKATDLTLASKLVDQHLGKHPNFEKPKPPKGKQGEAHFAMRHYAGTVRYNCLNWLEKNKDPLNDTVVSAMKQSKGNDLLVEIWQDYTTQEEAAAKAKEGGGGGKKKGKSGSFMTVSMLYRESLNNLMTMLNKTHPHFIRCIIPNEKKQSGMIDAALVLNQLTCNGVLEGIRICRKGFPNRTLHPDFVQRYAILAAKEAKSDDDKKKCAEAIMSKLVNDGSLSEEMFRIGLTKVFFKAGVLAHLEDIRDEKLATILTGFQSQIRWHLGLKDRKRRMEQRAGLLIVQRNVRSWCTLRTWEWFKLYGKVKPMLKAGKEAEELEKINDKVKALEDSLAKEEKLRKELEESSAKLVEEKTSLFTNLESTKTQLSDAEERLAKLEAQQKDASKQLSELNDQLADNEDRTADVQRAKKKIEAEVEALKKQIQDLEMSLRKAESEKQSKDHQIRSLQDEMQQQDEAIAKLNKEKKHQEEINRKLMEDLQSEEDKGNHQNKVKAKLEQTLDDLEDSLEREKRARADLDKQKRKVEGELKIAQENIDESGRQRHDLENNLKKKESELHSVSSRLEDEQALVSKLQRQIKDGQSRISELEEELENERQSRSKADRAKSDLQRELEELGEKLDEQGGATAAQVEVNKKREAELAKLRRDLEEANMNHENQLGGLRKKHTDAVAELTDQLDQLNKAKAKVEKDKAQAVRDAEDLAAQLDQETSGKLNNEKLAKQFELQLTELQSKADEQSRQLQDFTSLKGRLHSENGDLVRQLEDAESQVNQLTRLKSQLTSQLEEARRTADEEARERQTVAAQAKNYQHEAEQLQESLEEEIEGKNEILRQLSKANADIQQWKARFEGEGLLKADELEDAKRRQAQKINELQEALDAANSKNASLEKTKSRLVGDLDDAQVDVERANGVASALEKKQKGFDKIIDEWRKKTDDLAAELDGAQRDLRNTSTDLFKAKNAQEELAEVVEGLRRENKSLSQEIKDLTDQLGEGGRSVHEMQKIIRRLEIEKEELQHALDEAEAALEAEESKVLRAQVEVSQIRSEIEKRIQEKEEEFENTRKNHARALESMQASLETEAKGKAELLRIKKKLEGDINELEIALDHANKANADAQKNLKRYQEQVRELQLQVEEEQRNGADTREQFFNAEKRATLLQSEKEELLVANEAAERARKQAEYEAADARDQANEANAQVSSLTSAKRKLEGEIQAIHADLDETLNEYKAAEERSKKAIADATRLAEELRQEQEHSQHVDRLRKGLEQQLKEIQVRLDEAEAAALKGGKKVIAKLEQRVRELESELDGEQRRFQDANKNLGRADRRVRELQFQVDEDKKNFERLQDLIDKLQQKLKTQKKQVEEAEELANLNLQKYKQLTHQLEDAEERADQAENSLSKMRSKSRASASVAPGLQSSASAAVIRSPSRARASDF

Tests used:
[1] = target: T1, FLAG-NHL-1 (C. elegans) (UniProt Q03601); assay: co-IP; anti-FLAG (M2) and Dynabeads Protein A from lysates (NP40 lysis buffer, diluted in PBS with 0.02% Tween-20, 4 °C) of transgenic worms with FLAG-NHL-1 and HA-F40A3.6 in wild-type or unc-54(e1301) background, 25 °C for 24 h before collection; western blot
T1 sequence: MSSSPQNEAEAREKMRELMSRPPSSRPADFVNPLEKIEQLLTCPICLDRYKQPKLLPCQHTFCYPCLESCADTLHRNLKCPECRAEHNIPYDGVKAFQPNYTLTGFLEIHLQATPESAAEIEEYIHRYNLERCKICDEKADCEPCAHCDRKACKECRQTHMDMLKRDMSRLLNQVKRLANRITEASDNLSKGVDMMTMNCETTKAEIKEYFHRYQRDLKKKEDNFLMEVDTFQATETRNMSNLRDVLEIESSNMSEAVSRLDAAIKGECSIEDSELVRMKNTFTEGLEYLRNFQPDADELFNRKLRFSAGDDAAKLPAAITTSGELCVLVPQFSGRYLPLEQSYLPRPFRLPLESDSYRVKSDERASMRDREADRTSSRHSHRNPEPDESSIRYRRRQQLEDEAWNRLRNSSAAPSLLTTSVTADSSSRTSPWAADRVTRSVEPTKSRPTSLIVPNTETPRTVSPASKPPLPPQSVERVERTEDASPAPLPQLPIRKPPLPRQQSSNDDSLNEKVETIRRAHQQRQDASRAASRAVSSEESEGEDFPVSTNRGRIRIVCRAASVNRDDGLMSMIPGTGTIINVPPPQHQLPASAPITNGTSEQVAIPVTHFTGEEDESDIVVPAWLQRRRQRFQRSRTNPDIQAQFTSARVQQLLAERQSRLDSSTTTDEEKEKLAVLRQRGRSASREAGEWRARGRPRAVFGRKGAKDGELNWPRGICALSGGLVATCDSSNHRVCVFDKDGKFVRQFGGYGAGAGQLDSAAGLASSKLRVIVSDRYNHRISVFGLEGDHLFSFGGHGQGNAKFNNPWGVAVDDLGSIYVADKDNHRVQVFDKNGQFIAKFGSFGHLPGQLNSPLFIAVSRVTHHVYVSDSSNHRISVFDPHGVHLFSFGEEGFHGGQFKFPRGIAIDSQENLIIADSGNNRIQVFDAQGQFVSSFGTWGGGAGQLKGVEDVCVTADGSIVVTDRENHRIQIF

[2] = target: T2, NHL-1 (GAL4 two-hybrid fusion) (C. elegans) (UniProt Q03601); assay: two-hybrid; Matchmaker GAL4 yeast two-hybrid system 3, AH109 yeast, AD and BD fusions in varying combinations, growth on SD/-Leu/-Trp/-His at 30 °C for 4-5 days
T2 sequence: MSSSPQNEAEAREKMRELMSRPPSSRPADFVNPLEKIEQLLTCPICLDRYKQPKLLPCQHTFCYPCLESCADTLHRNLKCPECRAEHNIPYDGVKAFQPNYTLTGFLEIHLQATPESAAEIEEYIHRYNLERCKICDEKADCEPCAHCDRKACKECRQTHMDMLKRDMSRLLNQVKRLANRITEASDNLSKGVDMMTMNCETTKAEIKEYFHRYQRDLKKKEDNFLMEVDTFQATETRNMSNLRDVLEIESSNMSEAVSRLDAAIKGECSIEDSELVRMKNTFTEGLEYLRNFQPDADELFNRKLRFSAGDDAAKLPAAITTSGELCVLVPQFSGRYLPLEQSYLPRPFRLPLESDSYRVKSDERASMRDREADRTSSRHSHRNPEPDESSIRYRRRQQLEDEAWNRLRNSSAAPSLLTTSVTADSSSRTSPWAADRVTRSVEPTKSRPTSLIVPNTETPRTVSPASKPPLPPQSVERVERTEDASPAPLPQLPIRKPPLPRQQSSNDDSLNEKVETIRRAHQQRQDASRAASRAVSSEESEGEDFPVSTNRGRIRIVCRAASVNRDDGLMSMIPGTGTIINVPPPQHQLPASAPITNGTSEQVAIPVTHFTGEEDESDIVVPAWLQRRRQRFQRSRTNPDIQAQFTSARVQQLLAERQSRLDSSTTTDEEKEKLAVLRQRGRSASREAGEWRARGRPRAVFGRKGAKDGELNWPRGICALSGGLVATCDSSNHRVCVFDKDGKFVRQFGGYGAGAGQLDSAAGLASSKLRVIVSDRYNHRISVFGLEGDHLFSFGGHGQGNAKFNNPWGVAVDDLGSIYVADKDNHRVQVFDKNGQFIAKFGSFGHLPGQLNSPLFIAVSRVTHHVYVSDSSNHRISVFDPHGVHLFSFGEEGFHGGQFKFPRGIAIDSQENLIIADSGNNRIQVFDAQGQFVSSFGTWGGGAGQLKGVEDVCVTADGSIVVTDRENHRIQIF

[3] = target: T1, FLAG-NHL-1 (C. elegans); assay: co-IP; anti-FLAG (M2) and Dynabeads Protein A from lysates (NP40 lysis buffer, diluted in PBS with 0.02% Tween-20, 4 °C) of transgenic worms with FLAG-NHL-1 and HA-F40A3.6 in wild-type or unc-54(e1301) background, 25 °C for 24 h before collection; western blot; remark: listed apart in the source

UNC-54(e1301, p.G387R) (from UniProt P02566 1-1963)
binding [1]: binds

B1: UNC-45 (GAL4 two-hybrid fusion) (protein, UniProt G5EG62 1-961)
chain: MVARVQTAEEIRDEGNAAVKDQDYIKADELYTEALQLTTDEDKALRPVLYRNRAMARLKRDDFEGAQSDCTKALEFDGADVKALFRRSLAREQLGNVGPAFQDAKEALRLSPNDKGIVEVLQRLVKANNDKIKQTTSLANKVTDMEKLAFRGEAKDTEQKMTALNNLLVLCRESESGATGVWNQGALVPFVLNLINDASENEEVTVTAIRILDETIKNSVRCMKFLAMHDPDGPKSVRFVCRLMCKKSTKDFVDATGILVQRVFNAMAKMDRQKEMKPDPEVAEANKIWIIRVLLELQEMLQDPKVGAVQRETCIDLFLKNLMHMDGGIPRGWSWKFVEERGLLALLDVASQIPELCEYPVSAETRQHVAICLQRLEEDMVFDTKRTIFKEKVDMFFNALISRCTNDDEGHKYRIKLSCFLITMLQGPVDIGINLITNDQLTPIMLEMAASQDHLMQGIAAELIVATVSKHERAINMLKVGIPVLRALYDSEDPTVKVRALVGLCKIGAAGGDDISKATMKEEAVISLAKTCKKFLLETEKYSVDIRRYACEGLSYLSLDADVKEWIVDDSLLLKALVLLAKKAGALCVYTLATIYANLSNAFEKPKVDEEMVKLAQFAKHHVPETHPKDTEEYVEKRVRALVEEGAVPACVAVSKTESKNALELIARSLLAFAEYEDLRGRIIAEGGTVLCLRLTKEASGEGKIKAGHAIAKLGAKADPMISFPGQRAYEVVKPLCDLLHPDVEGKANYDSLLTLTNLASVSDSIRGRILKEKAIPKIEEFWFMTDHEHLRAAAAELLLNLLFFEKFYEETVAPGTDRLKLWVLYSAEVEEERLSRASAAGFAILTEDENACARIMDEIKSWPEVFKDIAMHEDAETQRRGLMGIANIMHSSNKLCSEIVSSEVFRVLVAVTKLGTINQERAGSTEQAKRGLEAAEKFGLIKATDREIYERENQMSTIQE
binding [2]: binds

B2: UNC-45(b131, p.G427E) (GAL4 two-hybrid fusion) (protein, UniProt G5EG62 1-961)
chain: MVARVQTAEEIRDEGNAAVKDQDYIKADELYTEALQLTTDEDKALRPVLYRNRAMARLKRDDFEGAQSDCTKALEFDGADVKALFRRSLAREQLGNVGPAFQDAKEALRLSPNDKGIVEVLQRLVKANNDKIKQTTSLANKVTDMEKLAFRGEAKDTEQKMTALNNLLVLCRESESGATGVWNQGALVPFVLNLINDASENEEVTVTAIRILDETIKNSVRCMKFLAMHDPDGPKSVRFVCRLMCKKSTKDFVDATGILVQRVFNAMAKMDRQKEMKPDPEVAEANKIWIIRVLLELQEMLQDPKVGAVQRETCIDLFLKNLMHMDGGIPRGWSWKFVEERGLLALLDVASQIPELCEYPVSAETRQHVAICLQRLEEDMVFDTKRTIFKEKVDMFFNALISRCTNDDEGHKYRIKLSCFLITMLQEPVDIGINLITNDQLTPIMLEMAASQDHLMQGIAAELIVATVSKHERAINMLKVGIPVLRALYDSEDPTVKVRALVGLCKIGAAGGDDISKATMKEEAVISLAKTCKKFLLETEKYSVDIRRYACEGLSYLSLDADVKEWIVDDSLLLKALVLLAKKAGALCVYTLATIYANLSNAFEKPKVDEEMVKLAQFAKHHVPETHPKDTEEYVEKRVRALVEEGAVPACVAVSKTESKNALELIARSLLAFAEYEDLRGRIIAEGGTVLCLRLTKEASGEGKIKAGHAIAKLGAKADPMISFPGQRAYEVVKPLCDLLHPDVEGKANYDSLLTLTNLASVSDSIRGRILKEKAIPKIEEFWFMTDHEHLRAAAAELLLNLLFFEKFYEETVAPGTDRLKLWVLYSAEVEEERLSRASAAGFAILTEDENACARIMDEIKSWPEVFKDIAMHEDAETQRRGLMGIANIMHSSNKLCSEIVSSEVFRVLVAVTKLGTINQERAGSTEQAKRGLEAAEKFGLIKATDREIYERENQMSTIQE
binding [2]: binds

B3: UNC-45 (endogenous) (protein, UniProt G5EG62 1-961)
chain: MVARVQTAEEIRDEGNAAVKDQDYIKADELYTEALQLTTDEDKALRPVLYRNRAMARLKRDDFEGAQSDCTKALEFDGADVKALFRRSLAREQLGNVGPAFQDAKEALRLSPNDKGIVEVLQRLVKANNDKIKQTTSLANKVTDMEKLAFRGEAKDTEQKMTALNNLLVLCRESESGATGVWNQGALVPFVLNLINDASENEEVTVTAIRILDETIKNSVRCMKFLAMHDPDGPKSVRFVCRLMCKKSTKDFVDATGILVQRVFNAMAKMDRQKEMKPDPEVAEANKIWIIRVLLELQEMLQDPKVGAVQRETCIDLFLKNLMHMDGGIPRGWSWKFVEERGLLALLDVASQIPELCEYPVSAETRQHVAICLQRLEEDMVFDTKRTIFKEKVDMFFNALISRCTNDDEGHKYRIKLSCFLITMLQGPVDIGINLITNDQLTPIMLEMAASQDHLMQGIAAELIVATVSKHERAINMLKVGIPVLRALYDSEDPTVKVRALVGLCKIGAAGGDDISKATMKEEAVISLAKTCKKFLLETEKYSVDIRRYACEGLSYLSLDADVKEWIVDDSLLLKALVLLAKKAGALCVYTLATIYANLSNAFEKPKVDEEMVKLAQFAKHHVPETHPKDTEEYVEKRVRALVEEGAVPACVAVSKTESKNALELIARSLLAFAEYEDLRGRIIAEGGTVLCLRLTKEASGEGKIKAGHAIAKLGAKADPMISFPGQRAYEVVKPLCDLLHPDVEGKANYDSLLTLTNLASVSDSIRGRILKEKAIPKIEEFWFMTDHEHLRAAAAELLLNLLFFEKFYEETVAPGTDRLKLWVLYSAEVEEERLSRASAAGFAILTEDENACARIMDEIKSWPEVFKDIAMHEDAETQRRGLMGIANIMHSSNKLCSEIVSSEVFRVLVAVTKLGTINQERAGSTEQAKRGLEAAEKFGLIKATDREIYERENQMSTIQE
binding [3]: binds
